Test results taken from publication PMC8256288.
Results are given in words; binding and its absence hold for the method and conditions named. Binding seen in cells or lysates may run through a third protein. Here binding means that the protein was enriched with, or labelled near, the bait; the list need not be complete.

Sequences of proteins named here, by UniProt entry; tags and fusion partners are left off. A change or cut given only in a name is not applied to a line headed by its entry. A line that says so, or that is headed by a name, gives the form on record, which may keep a tag or linker.
UniProt Q5FBB7: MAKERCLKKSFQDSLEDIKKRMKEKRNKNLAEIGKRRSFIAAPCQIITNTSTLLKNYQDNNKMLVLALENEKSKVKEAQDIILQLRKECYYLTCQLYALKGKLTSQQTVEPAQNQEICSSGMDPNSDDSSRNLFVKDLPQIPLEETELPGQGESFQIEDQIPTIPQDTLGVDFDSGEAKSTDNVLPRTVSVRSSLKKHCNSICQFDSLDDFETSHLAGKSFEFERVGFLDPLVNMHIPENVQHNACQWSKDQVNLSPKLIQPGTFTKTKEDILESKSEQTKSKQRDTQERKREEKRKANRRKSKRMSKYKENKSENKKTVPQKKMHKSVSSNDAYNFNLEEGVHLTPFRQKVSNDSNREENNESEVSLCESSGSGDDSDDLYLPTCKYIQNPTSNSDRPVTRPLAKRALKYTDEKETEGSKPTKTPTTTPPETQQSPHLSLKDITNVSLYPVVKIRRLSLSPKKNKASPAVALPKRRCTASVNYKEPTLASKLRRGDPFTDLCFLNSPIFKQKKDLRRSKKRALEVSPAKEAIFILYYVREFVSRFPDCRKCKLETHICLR
TurboID‐hSgo1 4A (Q5FBB7, form named): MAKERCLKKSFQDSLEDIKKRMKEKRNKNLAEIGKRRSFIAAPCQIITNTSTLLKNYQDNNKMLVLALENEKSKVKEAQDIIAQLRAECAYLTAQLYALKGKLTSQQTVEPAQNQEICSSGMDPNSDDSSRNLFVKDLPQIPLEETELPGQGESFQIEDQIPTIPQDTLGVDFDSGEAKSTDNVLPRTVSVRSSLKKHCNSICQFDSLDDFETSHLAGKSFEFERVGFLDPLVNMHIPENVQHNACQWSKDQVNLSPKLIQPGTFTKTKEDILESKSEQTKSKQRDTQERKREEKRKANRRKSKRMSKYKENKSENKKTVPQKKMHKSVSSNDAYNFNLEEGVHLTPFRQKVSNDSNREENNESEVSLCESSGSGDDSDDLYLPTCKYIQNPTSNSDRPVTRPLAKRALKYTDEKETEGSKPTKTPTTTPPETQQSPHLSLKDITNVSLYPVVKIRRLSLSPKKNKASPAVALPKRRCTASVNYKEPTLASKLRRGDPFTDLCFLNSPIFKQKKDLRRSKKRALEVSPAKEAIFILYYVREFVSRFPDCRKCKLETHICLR
TurboID‐hSgo1 3A (Q5FBB7, form named): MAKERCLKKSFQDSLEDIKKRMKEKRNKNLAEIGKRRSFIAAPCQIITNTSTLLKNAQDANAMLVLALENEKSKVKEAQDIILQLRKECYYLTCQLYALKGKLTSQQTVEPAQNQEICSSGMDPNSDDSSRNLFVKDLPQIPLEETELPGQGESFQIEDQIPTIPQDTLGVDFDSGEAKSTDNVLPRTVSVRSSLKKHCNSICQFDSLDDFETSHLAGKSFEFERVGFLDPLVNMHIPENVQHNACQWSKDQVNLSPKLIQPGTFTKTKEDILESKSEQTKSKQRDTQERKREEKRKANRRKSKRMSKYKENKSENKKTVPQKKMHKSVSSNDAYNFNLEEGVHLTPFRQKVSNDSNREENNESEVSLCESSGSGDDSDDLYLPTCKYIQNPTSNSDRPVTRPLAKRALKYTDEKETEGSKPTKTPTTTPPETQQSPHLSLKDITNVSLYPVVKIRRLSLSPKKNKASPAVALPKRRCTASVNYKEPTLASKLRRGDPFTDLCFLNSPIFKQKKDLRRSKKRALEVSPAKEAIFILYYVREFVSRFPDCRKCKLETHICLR
UniProt Q96GD4: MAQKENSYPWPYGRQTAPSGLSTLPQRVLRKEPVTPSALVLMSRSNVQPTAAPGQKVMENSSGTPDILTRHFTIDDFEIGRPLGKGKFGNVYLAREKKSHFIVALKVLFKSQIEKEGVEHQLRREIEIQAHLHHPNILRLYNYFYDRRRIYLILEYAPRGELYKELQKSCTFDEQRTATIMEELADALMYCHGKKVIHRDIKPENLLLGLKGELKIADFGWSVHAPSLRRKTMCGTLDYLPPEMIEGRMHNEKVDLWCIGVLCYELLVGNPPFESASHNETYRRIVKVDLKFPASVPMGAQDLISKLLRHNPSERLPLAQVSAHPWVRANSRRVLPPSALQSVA
UniProt Q9NQS7: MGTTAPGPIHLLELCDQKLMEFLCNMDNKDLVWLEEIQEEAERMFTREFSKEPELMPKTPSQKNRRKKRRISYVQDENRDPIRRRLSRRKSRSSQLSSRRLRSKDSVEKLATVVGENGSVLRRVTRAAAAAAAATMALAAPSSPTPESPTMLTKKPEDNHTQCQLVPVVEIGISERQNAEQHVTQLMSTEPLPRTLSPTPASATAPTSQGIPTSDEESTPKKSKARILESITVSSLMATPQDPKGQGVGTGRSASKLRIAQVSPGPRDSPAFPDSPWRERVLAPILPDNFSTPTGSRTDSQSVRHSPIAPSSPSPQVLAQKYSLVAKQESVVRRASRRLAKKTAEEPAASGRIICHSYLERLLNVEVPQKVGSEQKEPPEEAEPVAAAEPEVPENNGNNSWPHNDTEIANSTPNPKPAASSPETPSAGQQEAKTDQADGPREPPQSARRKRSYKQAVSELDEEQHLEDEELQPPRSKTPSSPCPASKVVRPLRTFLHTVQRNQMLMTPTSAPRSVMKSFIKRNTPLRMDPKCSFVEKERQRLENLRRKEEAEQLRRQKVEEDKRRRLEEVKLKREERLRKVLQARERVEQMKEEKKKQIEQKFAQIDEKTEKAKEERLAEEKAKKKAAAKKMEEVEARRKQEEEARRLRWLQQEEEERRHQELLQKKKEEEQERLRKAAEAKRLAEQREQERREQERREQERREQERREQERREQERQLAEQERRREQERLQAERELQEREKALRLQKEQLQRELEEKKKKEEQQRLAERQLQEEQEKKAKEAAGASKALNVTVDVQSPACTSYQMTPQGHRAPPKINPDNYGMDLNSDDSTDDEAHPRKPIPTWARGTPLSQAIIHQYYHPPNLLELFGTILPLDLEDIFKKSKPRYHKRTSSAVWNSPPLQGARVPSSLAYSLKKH

Columns and labels:
Assay in all cases: proximity labelling; TurboID-hSgo1 WT, 3A, 4A in stable HeLa cells, 50 µM biotin 1 h, mitotic shake-off, RIPA lysis, streptavidin agarose, washes with 2% SDS, label-free LC-MS/MS
[1] = biological target: TurboID‐hSgo1 WT (human) (UniProt Q5FBB7)
[2] = biological target: TurboID‐hSgo1 4A (human) (UniProt Q5FBB7)
[3] = biological target: TurboID‐hSgo1 3A (human) (UniProt Q5FBB7)

Aurora B (endogenous) (from UniProt Q96GD4 1-344)
binding [1]: binds
binding [2]: binds
binding [3]: binds

INCENP (endogenous) (from UniProt Q9NQS7 1-918)
binding [1]: binds
binding [2]: binds
binding [3]: binds

B1: Borealin (endogenous) (protein, UniProt Q53HL2 1-280)
chain: MAPRKGSSRVAKTNSLRRRKLASFLKDFDREVEIRIKQIESDRQNLLKEVDNLYNIEILRLPKALREMNWLDYFALGGNKQALEEAATADLDITEINKLTAEAIQTPLKSAKTRKVIQVDEMIVEEEEEEENERKNLQTARVKRCPPSKKRTQSIQGKGKGKRSSRANTVTPAVGRLEVSMVKPTPGLTPRFDSRVFKTPGLRTPAAGERIYNISGNGSPLADSKEIFLTVPVGGGESLRLLASDLQRHSIAQLDPEALGNIKKLSNRLAQICSSIRTHK
binding [1]: binds
binding [2]: binds
